Taken from: PubChem BioAssay AID1159578 (Peter MacCallum Cancer Centre, 2015)
Assay: 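siRNA pools altering how lymphatic endothelial cells close a scratch wound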 (primary screen). System: human lymphatic endothelial cells. Reagent: siRNA pool against human genes, 40 nM. Time to read-out: 48 h after transfection. Measured: 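Cells stained with dye and imaged after a scratch; covered wound area and nuclei counted, duplicates averaged, migration set against mock wells and turned into a robust z-score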. Scale: migration robust z-score: higher = faster migration into the scratch; nuclei per well: higher = more cells in the well. Active means: 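Pools averaging fewer than 3300 nuclei are never called; remaining pools count as changed when migration robust z lies outside -2 to 2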. Calls: active = migration changed; inactive = no migration change, or too few cells.
Shown is an unselected part of about 18,000 deposited reagents. About 1,030 of all reagents (5.7%) count as active. 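Inactive calls also include pools with fewer than 3300 nuclei, whose migration was not assessed.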 The raw values are shown without normalisation. Further read-outs or replicates are left out here. Reagent sequences are not shown.

| target | migration robust z-score | migration class with cell-count check | nuclei per well, duplicate mean | outcome |
| --- | --- | --- | --- | --- |
| KLRB1 | 1.02 | migration z between -2 and 2; enough cells | 6123 | inactive |
| OR6M1 | -0.28 | migration z between -2 and 2; enough cells | 7012 | inactive |
| CREG2 | 0.2 | migration z between -2 and 2; enough cells | 4648 | inactive |
| PLEKHG5 | -0.83 | migration z between -2 and 2; enough cells | 6467 | inactive |
| DHX37 | 2.03 | migration z above 2; enough cells | 5496 | active |
| EIF2B5 | 0.5 | migration z between -2 and 2; enough cells | 6518 | inactive |
| SCN2A | 0.57 | migration z between -2 and 2; enough cells | 5819 | inactive |
| CFHR4 | 0.67 | migration z between -2 and 2; enough cells | 6942 | inactive |
| CPZ | 1.35 | migration z between -2 and 2; enough cells | 5014 | inactive |
| STMN4 | -1.3 | migration z between -2 and 2; enough cells | 5776 | inactive |
| LNX1 | 0.47 | migration z between -2 and 2; enough cells | 6472 | inactive |
| SLC25A14 | -1.45 | migration z between -2 and 2; enough cells | 5754 | inactive |
| ETV6 | 0.73 | migration z between -2 and 2; enough cells | 4608 | inactive |
| ZNF839 | 0.68 | migration z between -2 and 2; enough cells | 5988 | inactive |
| CISH | -0.5 | migration z between -2 and 2; enough cells | 5507 | inactive |
| NFKBIZ | -2.33 | migration z below -2; enough cells | 5936 | active |
| LY6G6D | -0.42 | migration z between -2 and 2; enough cells | 6676 | inactive |
| APOA5 | 1.12 | migration z between -2 and 2; enough cells | 6849 | inactive |
| POLD2 | -1.76 | migration z between -2 and 2; enough cells | 3868 | inactive |
| ZNF780A | 0.26 | migration z between -2 and 2; enough cells | 5668 | inactive |
| NKG7 | 0.22 | migration z between -2 and 2; enough cells | 5449 | inactive |
| GUCD1 | 0.72 | migration z between -2 and 2; enough cells | 6441 | inactive |
| RPL17 | 0.04 | migration z between -2 and 2; enough cells | 5432 | inactive |
